In US20170369545A1:
These are yes or no findings as the source states them, for the method shown. Some results given as binding are weak or reduced against the parent protein; the word gives no strength. Sequences can lack the tags named with a protein.

Tests used:
[1] = target: recombinant MET-IgG1 chimera (UniProt P08581); assay: ALPHAScreen cross-titration: K1K1 0-300 nM against recombinant MET-Fc 0-10 nM, streptavidin coated donor beads and protein A-conjugated acceptor beads
[2] = target: recombinant MET-IgG1 chimera (UniProt P08581); assay: cross titration ALPHAScreen, K1K1 0-300 nM against MET-Fc 0-10 nM, streptavidin donor beads and protein A acceptor beads

- binding [1]: binds
- binding [2]: binds
B1: HGF/SF-K1K1 (C-terminally tagged K1K1 protein, 6xHis tag) (designed binder)
chain: MAIRNCIIGKGRSYKGTVSITKSGIKCQPWSSMIPHEHSFLPSSYRGKDLQENYCRNPRGEEGGPWCFTSNPEVRYEVCDIPQCSEVECIIGKGRSYKGTVSITKSGIKCQPWSSMIPHEHSFLPSSYRGKDLQENYCRNPRGEEGGPWCFTSNPEVRYEVCDIPQCSEVEHHHHHH
